Data published in PubChem BioAssay AID485314 (National Center for Advancing Translational Sciences (NCATS), 2010).
Hit rate of the full screen: of about 340,000 compounds, about 4,500 (1.3%) were called active. Inconclusive results, whose numbers are uncertain, are shown with a selection of clear calls. Calls follow the shape of the dose curve; as a rule, active = well fitted inhibition curve with a large enough effect; inconclusive = small, poorly fitted or top-dose-only effect, or another doubt; inactive = no such curve, though single readings can be large or run the other way. Potencies of inconclusive entries are doubtful fits and often do not repeat.

Biological target: DNA polymerase beta (Homo sapiens) (UniProt P06746)
Experiment: qHTS Assay for Inhibitors of DNA Polymerase Beta
Details: Pol beta primer extension/strand displacement, fluorescence kinetic; series mostly up to 114 µM
Summary of the method: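 Pol beta (10 nM) and compounds were preincubated 15 min at room temperature, then 50 nM substrate (final) started primer extension/strand displacement. Reads were taken at 0 and 10 min; concentration-response data were fitted to a four-parameter Hill equation.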
Potency is read from the fitted curve at half-maximal effect.

SMILES | Potency
Nc1c(S(=O)(=O)O)cc(NC(=O)c2ccccc2)c2c1C(=O)c1ccccc1C2=O | active: 22.4 µM
CC(=O)c1cccc(NC(=O)C(C)OC(=O)CNC(=O)c2ccc(C)s2)c1 (centres undefined) | inconclusive: 3.98 µM [inhibitor, full curve, poor fit]
CCc1ccc(CN2CCC(CO)(CC3CCCCO3)CC2)o1 (centres undefined) | inactive
COc1ccc(C2Oc3ccccc3C3=C2C(c2cccs2)n2ncnc2N3)cc1 (centres undefined) | inconclusive: 14.1 µM [inhibitor, partial curve, poor fit]
COc1ccc(S(=O)(=O)N(CC(=O)NN=C2CCN(C)CC2)c2ccc(C)cc2)cc1OC | inconclusive: 0.708 µM [inhibitor, full curve, poor fit]
COc1cc(NC(=O)CN2CCN(S(=O)(=O)c3ccc(C(C)C)cc3)CC2)cc(OC)c1 | inconclusive: 89.1 µM [inhibitor, single point]
Cn1c(=O)[nH]c(=O)c2c1nc(N1CCOCC1)n2Cc1ccccc1 | inactive
CCc1cccc(NC(=O)CCc2nc3cccnc3n2Cc2ccc(OC)cc2)c1 | inactive
CCOC(=O)C1(Cc2cccc(Cl)c2)CCCN(C(=O)c2cccc(C)n2)C1 (centres undefined) | inconclusive: 2.51 µM [inhibitor, partial curve]
Cc1oc(-c2ccccc2)nc1C(=O)Nc1nccs1 | inconclusive: 28.2 µM [inhibitor, full curve]
COc1ccc(CNC(=O)CN2C(=O)C3CCCN3c3ncc(Cl)cc32)cc1 (centres undefined) | inconclusive: 3.98 µM [inhibitor, full curve]
C/C(=N\NC(=O)c1nnn(-c2nonc2N)c1CN1CCC(C)CC1)c1cccc(Br)c1 | inconclusive: 63.1 µM [inhibitor, single point]
CCC(=O)NC(=S)Nc1cccc(NC(=O)c2ccccc2C)c1 | inconclusive: 89.1 µM [inhibitor, single point]
CCN1CCN(C(c2cccs2)C(C)NC(=O)C(=O)N2CCCCC2)CC1 (centres undefined) | inactive
CCCCCNS(=O)(=O)c1cc(C)ccc1OC | inconclusive: 100 µM [inhibitor, single point]
CCc1ccc(C2C(C#N)=C(N)C(C#N)(C#N)C3=CCC(C(C)(C)C)CC32)cc1 (centres undefined) | inconclusive: 100 µM [inhibitor, single point]
COc1ccc(-c2nnc(CSc3ncnc4sc5c(c34)CCC5)o2)cc1OC | inconclusive: 44.7 µM [inhibitor, partial curve]
Cc1ccccc1CN1c2ccccc2S(=O)(=O)c2ccccc21 | inconclusive: 3.98 µM [inhibitor, single point]
CC(/C=N/NC(=O)c1ccc(Br)cc1)=C\c1ccccc1 | active: 22.4 µM
O=C(CCc1nc2ccccc2c(=O)[nH]1)N1CCN(S(=O)(=O)c2cccc(F)c2)CC1 | inconclusive: 2.82 µM [inhibitor, full curve, poor fit]
Cc1ccc(CN(C(=O)c2ccc([N+](=O)[O-])cc2)C2CCS(=O)(=O)C2)o1 (centres undefined) | inactive
COc1cc(OC)c(OC)cc1/C=N/Nc1ccc(Cl)nn1 | inconclusive: 89.1 µM [inhibitor, single point]

Part of the list above, with each value named:
Cc1oc(-c2ccccc2)nc1C(=O)Nc1nccs1
  Potency: inconclusive: 28.2 µM [inhibitor, full curve]
COc1ccc(CNC(=O)CN2C(=O)C3CCCN3c3ncc(Cl)cc32)cc1 (centres undefined)
  Potency: inconclusive: 3.98 µM [inhibitor, full curve]
C/C(=N\NC(=O)c1nnn(-c2nonc2N)c1CN1CCC(C)CC1)c1cccc(Br)c1
  Potency: inconclusive: 63.1 µM [inhibitor, single point]

The list continues:

SMILES | Potency
CCCCC1=CC2=C(c3ccco3)C(=O)C(C)(OC(=O)c3ccc(OC)cc3)C(=O)C2=CN1Cc1ccc(OC)cc1 (centres undefined) | active: 44.7 µM
COc1cccc(C(=O)Nc2ccc(-c3nc4ccccc4o3)c(O)c2)c1 | inconclusive: 39.8 µM [inhibitor, single point]
CC1=NN(C(N)=S)C(=O)C1N=Nc1c(Cl)cc([N+](=O)[O-])cc1Cl (centres undefined) | inconclusive: 89.1 µM [inhibitor, single point]
CCOc1cccc(C(=O)Nc2ccc3ccccc3c2)c1 | inconclusive: 22.4 µM [inhibitor, single point]
CC(C)(C)c1ccc(C(CC(=O)O)NC(=O)Cc2ccc(F)cc2)cc1 (centres undefined) | inconclusive: 22.4 µM [inhibitor, full curve]
CCc1ccccc1NC(=O)c1ccc2c(c1)CCN2S(C)(=O)=O | inconclusive: 39.8 µM [inhibitor, single point]
Clc1ccc(OCc2cc(-c3ccccc3)no2)cc1Cl | inconclusive: 79.4 µM [inhibitor, single point]
CCc1ccccc1NC(=O)C1CCN(S(=O)(=O)c2ccc3[nH]c(=O)ccc3c2)CC1 | inconclusive: 31.6 µM [inhibitor, full curve]
COC(=O)c1ccc(-c2ccco2)n1Cc1cccc(C)c1 | inconclusive: 4.47 µM [inhibitor, single point]
Cc1cc(NC(=O)COc2cccc(C)c2C)no1 | inconclusive: 3.16 µM [inhibitor, single point]
COc1ccccc1N1CCN(C(=O)CCCC2=NS(=O)(=O)c3ccccc3N2)CC1 | inconclusive: 39.8 µM [inhibitor, single point]
COc1cc(/C=N/NC(=O)c2ccncc2)ccc1OCCN1CCCCC1 | inconclusive: 10 µM [inhibitor, single point]
O=C(CCS(=O)(=O)c1ccc(Br)cc1)NCc1cccs1 | active: 15.8 µM
COc1cc(-c2cccs2)cc(=O)c2c(C)oc(C)c12 | active: 14.1 µM
CCOC(=O)c1c(C)[nH]c(C)c1C(=O)CSc1nnc(-c2ccc(OC(F)F)cc2)o1 | inconclusive: 11.2 µM [inhibitor, full curve, poor fit]
COc1ccc(N2CCN(S(=O)(=O)c3c(C)[nH]c(=O)[nH]c3=O)CC2)cc1 | inconclusive: 89.1 µM [inhibitor, single point]
Oc1ccc(/C=N/N2CCN(C3c4ccccc4-c4ccccc43)CC2)c(O)c1 | inactive
CCC(C)[C@H](NC(=O)C1CC(=O)N(c2ccc(OC)cc2)C1)C(=O)N1CCCCC1 (some centres undefined) | inactive
CN(C)c1ccc(/C=C(\C#N)C(=O)NCc2ccco2)cc1 | active: 56.2 µM
O=S(=O)(Cc1ccccc1)c1ccccc1-c1nnc(-c2ccccc2)o1 | inconclusive: 12.6 µM [inhibitor, partial curve]
CCOC(=O)c1ccc(COC(=O)CNC(=O)CNC(=O)c2ccc(OC)cc2)o1 | inconclusive: 79.4 µM [inhibitor, single point]
Cn1c(=O)n(C/C=C/c2ccccc2)c(=O)c2c1nc1n2CCN1c1ccccc1 | inconclusive: 63.1 µM [inhibitor, single point]

SMILES | Potency
O=C(O)c1ccc(/C=C2\SC(=S)N(NC(=O)c3ccccc3)C2=O)cc1 | inconclusive: 0.891 µM [inhibitor, full curve, poor fit]
O=C(C1COc2ccccc2O1)N1CCN(c2ccc(F)cc2)CC1 (centres undefined) | inconclusive: 89.1 µM [inhibitor, single point]
Cc1cccc(CNC(=O)c2ccc(NC(=O)N3CC(C)Sc4ccccc43)cc2)c1 (centres undefined) | inactive
CCCCCc1cc(=O)oc2c(C(CCN3CCCC(C)C3)c3ccc(N(C)C)cc3)c(OC)cc(OC)c12 (centres undefined) | inconclusive: 50.1 µM [inhibitor, single point]
Cn1c(=O)c2c3c(sc2n2cnnc12)CCC3 | inconclusive: 0.141 µM [inhibitor, full curve, poor fit]
Cc1ccc(-n2c3c(c(=O)[nH]c2=O)C(NC(=O)c2ccccc2C)(C(F)(F)F)C(=O)N3)cc1 (centres undefined) | inconclusive: 39.8 µM [inhibitor, partial curve, poor fit]
COc1cccc(/C=C/c2onc(C)c2S(=O)(=O)N2CCC(C(=O)N3CCC(C)CC3)CC2)c1 | inconclusive: 28.2 µM [inhibitor, partial curve, poor fit]
CCOc1ccc(CCNC(=O)c2cc3c(s2)-c2ccccc2OC3)cc1OCC | active: 31.6 µM
CCc1ccc2nc3nc(C)cc(C)c3c(N)c2c1 | inconclusive: 39.8 µM [inhibitor, partial curve, poor fit]
CCC(C)(C)n1nnnc1C(C(C)C)N(CCN1CCOCC1)Cc1cc2cccc(C)c2[nH]c1=O (centres undefined) | inconclusive: 89.1 µM [inhibitor, single point]
Cc1ccc(S(=O)(=O)c2c(N)n(-c3ccccc3)c3nc4ccccc4nc23)cc1 | inactive
CCOc1ccc(NC(=O)CC2C(=O)N(c3ccccc3)C(=O)N2Cc2ccc3c(c2)OCO3)cc1 (centres undefined) | inactive
CCOc1ccc(-c2nnc3ccc(SCC(=O)NCc4ccco4)nn23)cc1 | active: 25.1 µM
O=C(Nc1cc(Cl)ccc1Cl)C1CC(=O)N(c2ccccc2)C1 (centres undefined) | inconclusive: 2 µM [inhibitor, partial curve, poor fit]
Cc1cccc(NNC(=O)c2c(F)cccc2Cl)c1 | inconclusive: 89.1 µM [inhibitor, single point]
CC[n+]1c(/C=C/c2ccc(OC)c(OC)c2)ccc2ccccc21 | inconclusive: 28.2 µM [inhibitor, single point]
Cn1c(=O)oc2cc(S(=O)(=O)Nc3ccccc3O)ccc21 | inconclusive: 20 µM [inhibitor, partial curve]
CN(Cc1ccccc1)C(=O)CN1CCN(C(c2ccccc2)c2ccccc2)CC1 | inconclusive: 89.1 µM [inhibitor, single point]
COc1ccc(S(=O)(=O)c2c(C)c(NS(=O)(=O)c3ccccc3)cc(C)c2O)cc1 | inconclusive: 89.1 µM [inhibitor, partial curve, poor fit]
CCn1c(SCC(=O)NCc2ccc3c(c2)OCO3)nc2c(c1=O)SCC2 | inconclusive: 56.2 µM [inhibitor, partial curve, poor fit]
